Data on one substance can be found in paper PMC6094050, “O-GlcNAcylation Signal Mediates Proteasome Inhibitor Resistance in Cancer Cells by Stabilizing NRF1” (Molecular and Cellular Biology, 2018).

No constants are given. Whether binding was seen depends on the method and setting. In cells and extracts the contact can be indirect. Binding can be weak; no strength is given. Tags and fused reporters may be left off the sequences shown.

This experiment has as its target T1, 3×FLAG-mNRF1 ΔbZip (1–592) (mouse) (UniProt Q61985).
T1 sequence: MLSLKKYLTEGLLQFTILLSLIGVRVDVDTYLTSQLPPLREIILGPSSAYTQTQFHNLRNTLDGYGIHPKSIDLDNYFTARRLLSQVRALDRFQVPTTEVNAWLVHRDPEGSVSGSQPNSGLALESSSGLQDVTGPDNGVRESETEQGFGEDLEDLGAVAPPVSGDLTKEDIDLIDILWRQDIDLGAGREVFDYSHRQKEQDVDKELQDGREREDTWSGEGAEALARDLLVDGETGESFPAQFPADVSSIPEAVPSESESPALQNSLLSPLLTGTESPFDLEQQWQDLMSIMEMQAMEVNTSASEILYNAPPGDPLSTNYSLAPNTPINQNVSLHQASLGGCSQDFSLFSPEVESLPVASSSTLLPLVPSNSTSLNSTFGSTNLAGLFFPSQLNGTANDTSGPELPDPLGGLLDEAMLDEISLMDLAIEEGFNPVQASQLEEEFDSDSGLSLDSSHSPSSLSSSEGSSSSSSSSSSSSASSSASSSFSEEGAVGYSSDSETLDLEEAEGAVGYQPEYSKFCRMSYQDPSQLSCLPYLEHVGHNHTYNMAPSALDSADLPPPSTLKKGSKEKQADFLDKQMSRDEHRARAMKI
Put plainly: co-IP; soluble nuclear extracts of 293F cells that stably express FLAG-tagged NRF1 or its deletion mutants, precipitated with anti-FLAG antibody; immunoblot for OGT, HCF-1 and FLAG.

Regarding “host cell factor C1 (HCF-1), endogenous (human (endogenous in 293F and 293T))”, the binding entry was “binds”.
